No constants are given. Whether binding was seen depends on the method and setting. Binding seen in cells or lysates may run through a third protein. Some entries that bind do so weakly or less than the wild type.
How the values were obtained:
GST-hNET-Ct (human) = GST-hNET-Ct (human) (UniProt P23975); experiment: pull-down
GST-hDAT-Ct (human) = GST-hDAT-Ct (human) (UniProt Q01959); experiment: pull-down
YFP-hNET (human) = YFP-hNET (human) (UniProt P23975); experiment: co-IP
YFP-hGAT1 (human) = YFP-hGAT1 (human) (UniProt P30531); experiment: co-IP
YFP-hDAT (human) = YFP-hDAT (human) (UniProt Q01959); experiment: co-IP

Protein sequences, listed by entry. Tags and fused reporters are not part of them. Residues count along the entry.
UniProt P23975, whole entry: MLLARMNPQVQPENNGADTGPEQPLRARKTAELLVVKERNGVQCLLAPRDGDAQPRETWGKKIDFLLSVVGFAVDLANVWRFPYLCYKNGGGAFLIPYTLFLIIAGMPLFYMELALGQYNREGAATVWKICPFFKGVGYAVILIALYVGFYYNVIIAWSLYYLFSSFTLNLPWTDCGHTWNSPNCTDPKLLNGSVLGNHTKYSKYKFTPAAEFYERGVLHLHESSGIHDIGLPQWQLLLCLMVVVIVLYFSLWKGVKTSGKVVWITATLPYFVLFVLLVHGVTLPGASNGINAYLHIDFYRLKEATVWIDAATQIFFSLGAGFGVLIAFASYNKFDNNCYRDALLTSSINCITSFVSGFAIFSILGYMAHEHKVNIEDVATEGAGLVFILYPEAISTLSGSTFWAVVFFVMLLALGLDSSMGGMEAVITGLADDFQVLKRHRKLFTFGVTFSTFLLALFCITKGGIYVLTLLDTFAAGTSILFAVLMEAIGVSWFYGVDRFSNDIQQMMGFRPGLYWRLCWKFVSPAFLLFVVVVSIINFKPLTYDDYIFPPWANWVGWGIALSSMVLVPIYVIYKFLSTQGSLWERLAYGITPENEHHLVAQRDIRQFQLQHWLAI
UniProt P23975, 570-617: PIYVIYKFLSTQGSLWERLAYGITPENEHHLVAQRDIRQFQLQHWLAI
UniProt Q01959, whole entry: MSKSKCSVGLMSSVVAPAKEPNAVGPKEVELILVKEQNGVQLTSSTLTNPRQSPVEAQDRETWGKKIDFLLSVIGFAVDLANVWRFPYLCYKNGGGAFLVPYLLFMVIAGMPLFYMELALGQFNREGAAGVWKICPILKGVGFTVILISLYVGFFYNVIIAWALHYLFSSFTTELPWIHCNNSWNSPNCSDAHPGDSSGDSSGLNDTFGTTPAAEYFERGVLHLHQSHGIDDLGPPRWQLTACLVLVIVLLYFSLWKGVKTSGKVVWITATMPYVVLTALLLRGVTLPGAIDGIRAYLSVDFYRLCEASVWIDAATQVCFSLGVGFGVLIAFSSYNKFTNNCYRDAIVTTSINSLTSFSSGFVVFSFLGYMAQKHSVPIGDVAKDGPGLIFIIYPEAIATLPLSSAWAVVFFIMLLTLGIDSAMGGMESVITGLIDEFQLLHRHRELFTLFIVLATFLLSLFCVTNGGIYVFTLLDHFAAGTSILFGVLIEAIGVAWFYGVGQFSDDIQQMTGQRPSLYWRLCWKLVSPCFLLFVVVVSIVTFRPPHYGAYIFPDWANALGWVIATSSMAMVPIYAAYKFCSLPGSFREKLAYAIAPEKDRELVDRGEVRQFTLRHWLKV
UniProt Q01959, 579-620: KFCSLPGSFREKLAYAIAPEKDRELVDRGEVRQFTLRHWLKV
UniProt P30531, whole entry: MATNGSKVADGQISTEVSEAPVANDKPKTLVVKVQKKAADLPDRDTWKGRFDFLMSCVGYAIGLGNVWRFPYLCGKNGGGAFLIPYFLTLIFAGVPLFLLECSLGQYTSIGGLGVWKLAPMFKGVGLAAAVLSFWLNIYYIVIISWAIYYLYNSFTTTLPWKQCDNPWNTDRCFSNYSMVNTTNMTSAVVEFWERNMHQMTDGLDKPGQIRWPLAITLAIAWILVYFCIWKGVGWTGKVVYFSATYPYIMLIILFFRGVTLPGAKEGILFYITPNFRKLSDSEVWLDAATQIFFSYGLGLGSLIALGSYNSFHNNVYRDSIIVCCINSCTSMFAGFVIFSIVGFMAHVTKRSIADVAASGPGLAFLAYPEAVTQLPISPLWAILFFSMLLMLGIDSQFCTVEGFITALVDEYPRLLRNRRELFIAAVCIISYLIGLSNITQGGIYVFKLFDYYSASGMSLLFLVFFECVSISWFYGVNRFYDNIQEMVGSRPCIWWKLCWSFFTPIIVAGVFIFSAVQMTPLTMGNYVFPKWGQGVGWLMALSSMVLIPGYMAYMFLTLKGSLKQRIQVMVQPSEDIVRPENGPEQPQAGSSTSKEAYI
UniProt O60566, whole entry: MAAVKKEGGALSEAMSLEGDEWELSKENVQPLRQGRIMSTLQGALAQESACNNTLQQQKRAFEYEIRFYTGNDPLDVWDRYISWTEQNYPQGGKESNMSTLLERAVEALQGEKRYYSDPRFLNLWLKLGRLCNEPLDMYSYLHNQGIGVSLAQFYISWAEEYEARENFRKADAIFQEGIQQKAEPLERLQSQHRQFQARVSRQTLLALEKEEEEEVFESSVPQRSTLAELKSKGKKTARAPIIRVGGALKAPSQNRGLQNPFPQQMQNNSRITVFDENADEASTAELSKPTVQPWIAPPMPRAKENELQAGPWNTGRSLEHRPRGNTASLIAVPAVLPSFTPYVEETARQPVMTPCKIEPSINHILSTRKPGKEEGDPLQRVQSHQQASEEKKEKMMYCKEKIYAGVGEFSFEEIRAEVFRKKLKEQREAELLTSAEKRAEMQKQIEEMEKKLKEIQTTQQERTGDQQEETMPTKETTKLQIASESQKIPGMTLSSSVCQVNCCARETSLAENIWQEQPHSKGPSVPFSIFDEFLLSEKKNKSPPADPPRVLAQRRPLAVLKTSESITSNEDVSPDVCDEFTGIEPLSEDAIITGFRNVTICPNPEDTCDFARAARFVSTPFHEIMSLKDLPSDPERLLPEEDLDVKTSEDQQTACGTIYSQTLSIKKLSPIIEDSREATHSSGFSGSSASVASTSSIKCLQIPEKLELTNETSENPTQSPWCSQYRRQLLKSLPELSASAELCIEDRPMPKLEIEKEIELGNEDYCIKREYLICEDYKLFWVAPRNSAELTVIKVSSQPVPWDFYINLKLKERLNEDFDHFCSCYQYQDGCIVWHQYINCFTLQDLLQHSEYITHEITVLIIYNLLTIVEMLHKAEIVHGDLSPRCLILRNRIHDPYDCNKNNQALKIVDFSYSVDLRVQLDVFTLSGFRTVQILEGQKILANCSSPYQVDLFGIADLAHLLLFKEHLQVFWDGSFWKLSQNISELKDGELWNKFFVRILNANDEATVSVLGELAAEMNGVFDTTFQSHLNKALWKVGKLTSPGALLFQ
UniProt Q13257, whole entry: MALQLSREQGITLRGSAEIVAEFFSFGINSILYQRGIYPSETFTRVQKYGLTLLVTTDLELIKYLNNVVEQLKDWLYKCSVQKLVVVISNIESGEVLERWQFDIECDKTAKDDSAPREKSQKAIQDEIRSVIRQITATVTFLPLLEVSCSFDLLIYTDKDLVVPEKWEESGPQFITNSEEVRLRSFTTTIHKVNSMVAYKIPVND
UniProt P04406, whole entry: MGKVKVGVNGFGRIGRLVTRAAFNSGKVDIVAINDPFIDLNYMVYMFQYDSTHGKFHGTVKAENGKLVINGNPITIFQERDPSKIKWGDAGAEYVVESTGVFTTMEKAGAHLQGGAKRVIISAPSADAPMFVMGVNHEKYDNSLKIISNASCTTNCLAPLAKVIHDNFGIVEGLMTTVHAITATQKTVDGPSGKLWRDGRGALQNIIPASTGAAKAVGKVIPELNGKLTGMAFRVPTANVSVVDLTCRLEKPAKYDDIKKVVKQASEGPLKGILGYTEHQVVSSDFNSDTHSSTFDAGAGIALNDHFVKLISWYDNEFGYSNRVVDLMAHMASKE

Substance	binding (GST-hNET-Ct (human))	binding (GST-hDAT-Ct (human))	binding (YFP-hNET (human))	binding (YFP-hGAT1 (human))	binding (YFP-hDAT (human))
BubR1 (from UniProt O60566 1-1050)	binds	binds	binds	binds	binds
MAD2 (endogenous) (from UniProt Q13257 1-205)	binds	binds	binds	binds	binds
glyceraldehyde 3-phosphate dehydrogenase (GAPDH) (from UniProt P04406 1-335)	–	–	no binding	no binding	no binding

Reference: paper doi:10.1101/2021.06.09.447721
